Source: PubChem BioAssay AID652243 (Drosophila RNAi Screening Center, 2013)

- Assay: 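Fly regulators of androgen-dependent reporter output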 (primary screen)
- Cell system: Drosophila S2R+ cells
- Knock-down reagent: long dsRNA against Drosophila genes
- Time to read-out: 72 h (48 h, then 24 h hormone)
- Conditions: synthetic androgen R1881 at 10 nM for 24 h
- Detection: 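Firefly light from an androgen-responsive reporter and Renilla control light per well, raw and unnormalised, for each of two replicates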
- Direction: firefly reporter light: higher = more light from androgen-responsive reporter; Renilla control light: higher = more constitutive control signal (cell number, transfection)
- Rule for the call: 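Across duplicate plates, a knock-down whose log firefly/Renilla ratio shifted a set fold down or up from the GFP/LacZ control mean was a hit; the downward cut appears as both 1.5 and 3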
- Meaning of the calls: active = hit: reporter lowered or raised; inactive = no hit
The screen tested about 24,000 reagents; below is a random part of those with a known target gene and a result. In the full data, 246 (1%) got an active call. 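Plates not normalised; calls are printed but the firefly/Renilla ratio behind them is not deposited; fold cut for lowering reported inconsistently.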 The raw values are shown without normalisation. Names joined by + are all predicted targets of the reagent. No sequences are given here. Not stated in the record: the amount of reagent.

no.	Gene	dsRNA	firefly reporter light, replicate 1	firefly reporter light, replicate 2	Renilla control light, replicate 1	Renilla control light, replicate 2	Call
1	mRpL50 (mitochondrial ribosomal protein L50)	DRSC11015	6.39e5	7.48e5	1.78e6	1.63e6	inactive
2	mRpL50 (mitochondrial ribosomal protein L50)	DRSC29216	5.44e5	5.94e5	1.20e6	1.13e6	inactive
3	Su(var)3-3 (Suppressor of variegation 3-3)	DRSC10250	35324	34722	3.64e5	2.86e5	inactive
4	Su(var)3-3 (Suppressor of variegation 3-3)	DRSC24846	5.38e5	7.20e5	4.88e5	5.41e5	inactive
5	CG31373	DRSC16052	1.77e5	2.59e5	2.94e6	2.74e6	inactive
6	CG12259	DRSC23281	4.90e5	6.95e5	3.73e5	4.53e5	inactive
7	CG12259	DRSC28180	4.16e5	3.88e5	1.81e6	1.99e6	inactive
8	Smyd4-2 (SET and MYND domain containing, class 4, member 2)	DRSC10126	1.69e5	1.36e5	6.88e5	1.15e6	inactive
9	Smyd4-2 (SET and MYND domain containing, class 4, member 2)	DRSC25934	3.71e5	5.05e5	6.72e5	8.04e5	inactive
10	shrb (shrub)	DRSC07061	8.45e5	1.08e6	1.03e6	1.37e6	inactive
11	CG6972 + CCAP	DRSC28448	3.54e5	5.34e5	5.80e5	1.08e6	inactive
12	CG17991	DRSC15294	1.96e5	2.13e5	1.86e6	2.71e6	inactive
13	Mms19	DRSC12188	30874	21307	2.74e5	3.03e5	inactive
14	Mms19	DRSC27172	2.86e5	3.05e5	8.01e5	5.85e5	inactive
15	CG6664	DRSC10690	25452	67385	3.78e5	4.45e5	inactive
16	CG6664	DRSC25430	5.48e5	7.49e5	6.12e5	8.26e5	inactive
17	CG6664	DRSC39058	9.68e5	8.43e5	2.08e6	2.06e6	inactive
18	Veneno	DRSC16537	56907	80069	1.09e6	1.05e6	inactive
19	CG2519	DRSC12312	18585	38815	1.90e5	2.64e5	inactive
20	dpr15 (defective proboscis extension response 15)	DRSC12891	1.59e5	1.30e5	14565	1.63e5	inactive
21	dpr15 (defective proboscis extension response 15)	DRSC14187	1.23e5	1.21e5	2.44e6	2.59e6	inactive
22	dpr15 (defective proboscis extension response 15)	DRSC14188	1.25e5	2.31e5	2.16e6	2.40e6	inactive
23	snoRNA:Me28S-C3420b + RpS11	DRSC07396	4.46e5	2.38e5	2.37e6	1.87e6	inactive
24	Snap29 (Synaptosomal-associated protein 29kDa)	DRSC04721	1.53e5	1.79e5	1.63e6	1.75e6	inactive
25	Snap29 (Synaptosomal-associated protein 29kDa)	DRSC24658	2.45e5	1.94e5	1.25e6	5.16e5	inactive
26	CG11597	DRSC09847	1.04e6	8.93e5	1.28e6	1.11e6	inactive
27	sut2 (sugar transporter 2)	DRSC07701	1.21e6	5.27e5	1.67e6	9.22e5	inactive
28	trus (toys are us)	DRSC15772	81222	76155	1.12e6	1.55e6	inactive
29	trus (toys are us)	DRSC25521	7.13e5	7.72e5	6.88e5	8.87e5	inactive
30	CG17782	DRSC23227	6.92e5	7.90e5	1.80e6	1.61e6	inactive
31	nvd (neverland)	DRSC22139	7.92e5	6.42e5	2.43e6	2.26e6	inactive
32	nvd (neverland)	DRSC26328	3.29e5	2.55e5	6.40e5	5.72e5	inactive
33	GMF (Glia maturation factor)	DRSC01928	1.09e6	1.21e6	1.51e6	2.92e6	inactive
34	CG32376	DRSC22754	9.04e5	1.14e6	1.89e6	1.78e6	inactive
35	CG5612	DRSC15844	2.41e5	1.93e5	2.34e6	2.63e6	inactive

7 of these entries, reformatted.
Gene	dsRNA	firefly reporter light, replicate 1	firefly reporter light, replicate 2	Renilla control light, replicate 1	Renilla control light, replicate 2	Call
Snap29 (Synaptosomal-associated protein 29kDa)	DRSC24658	2.45e5	1.94e5	1.25e6	5.16e5	inactive
CG11597	DRSC09847	1.04e6	8.93e5	1.28e6	1.11e6	inactive
sut2 (sugar transporter 2)	DRSC07701	1.21e6	5.27e5	1.67e6	9.22e5	inactive
trus (toys are us)	DRSC15772	81222	76155	1.12e6	1.55e6	inactive
trus (toys are us)	DRSC25521	7.13e5	7.72e5	6.88e5	8.87e5	inactive
CG17782	DRSC23227	6.92e5	7.90e5	1.80e6	1.61e6	inactive
nvd (neverland)	DRSC22139	7.92e5	6.42e5	2.43e6	2.26e6	inactive

Next results:
no.	Gene	dsRNA	firefly reporter light, replicate 1	firefly reporter light, replicate 2	Renilla control light, replicate 1	Renilla control light, replicate 2	Call
36	Cpr100A (Cuticular protein 100A)	DRSC14465	1.85e5	1.66e5	1.93e6	2.16e6	inactive
37	Cpr100A (Cuticular protein 100A)	DRSC28530	3.76e5	6.71e5	1.01e6	1.66e6	inactive
38	CG32249	DRSC08101	3.98e5	4.46e5	8.62e5	7.10e5	inactive
39	CG32249	DRSC08177	2.71e5	2.01e5	2.78e6	2.94e6	inactive
40	CG32249	DRSC22444	4.19e5	9.03e5	8.05e5	1.70e6	inactive
41	lost	DRSC12002	1.11e5	1.13e5	2.22e5	2.49e5	inactive
42	lost	DRSC12234	22161	23261	2.05e5	1.99e5	inactive
43	lost	DRSC21987	1.24e6	1.31e6	1.13e6	1.13e6	inactive
44	GluRIIC (Glutamate receptor IIC)	DRSC00642	6.10e5	8.24e5	1.32e6	1.28e6	inactive
45	Nrx-1 (Neurexin 1)	DRSC16184	69197	90206	81022	86630	inactive
46	CG16904	DRSC15161	1.61e5	37998	9.18e5	5.11e5	inactive
47	CG16904	DRSC25306	1.12e6	1.34e6	7.13e5	8.46e5	inactive
48	CG13946	DRSC00364	1.30e5	1.46e5	5.97e5	8.50e5	inactive
49	Tet (Ten-Eleven Translocation (TET) family protein)	DRSC08550	5.44e5	6.66e5	1.79e6	1.61e6	inactive
50	Tet (Ten-Eleven Translocation (TET) family protein)	DRSC08646	92833	90686	1.30e6	1.24e6	inactive
51	Tet (Ten-Eleven Translocation (TET) family protein)	DRSC26922	4.74e5	3.83e5	4.99e5	3.01e5	inactive
52	Tet (Ten-Eleven Translocation (TET) family protein)	DRSC28377	1.48e5	3.88e5	5.28e5	9.40e5	inactive
53	nonA-l (nonA-like)	DRSC17017	56607	66932	1.87e6	1.82e6	inactive
54	nonA-l (nonA-like)	DRSC25387	4.55e5	2.17e5	3.93e5	5.02e5	inactive
55	CG17470	DRSC02621	6.71e5	8.53e5	9.11e5	1.22e6	inactive
56	Srp54k (Signal recognition particle 54k)	DRSC11289	1.10e5	1.51e5	1.69e6	1.88e6	inactive
57	Cep135 (Centrosomal protein 135kDa)	DRSC09345	2.18e5	72860	2.03e5	90784	inactive
58	Cep135 (Centrosomal protein 135kDa)	DRSC10244	1.08e6	1.01e6	2.05e6	1.62e6	inactive
